This is an account of results in publication PMC6861704.

Sequences of proteins named here, by UniProt entry; tags and fusion partners are left off.
UniProt P25694: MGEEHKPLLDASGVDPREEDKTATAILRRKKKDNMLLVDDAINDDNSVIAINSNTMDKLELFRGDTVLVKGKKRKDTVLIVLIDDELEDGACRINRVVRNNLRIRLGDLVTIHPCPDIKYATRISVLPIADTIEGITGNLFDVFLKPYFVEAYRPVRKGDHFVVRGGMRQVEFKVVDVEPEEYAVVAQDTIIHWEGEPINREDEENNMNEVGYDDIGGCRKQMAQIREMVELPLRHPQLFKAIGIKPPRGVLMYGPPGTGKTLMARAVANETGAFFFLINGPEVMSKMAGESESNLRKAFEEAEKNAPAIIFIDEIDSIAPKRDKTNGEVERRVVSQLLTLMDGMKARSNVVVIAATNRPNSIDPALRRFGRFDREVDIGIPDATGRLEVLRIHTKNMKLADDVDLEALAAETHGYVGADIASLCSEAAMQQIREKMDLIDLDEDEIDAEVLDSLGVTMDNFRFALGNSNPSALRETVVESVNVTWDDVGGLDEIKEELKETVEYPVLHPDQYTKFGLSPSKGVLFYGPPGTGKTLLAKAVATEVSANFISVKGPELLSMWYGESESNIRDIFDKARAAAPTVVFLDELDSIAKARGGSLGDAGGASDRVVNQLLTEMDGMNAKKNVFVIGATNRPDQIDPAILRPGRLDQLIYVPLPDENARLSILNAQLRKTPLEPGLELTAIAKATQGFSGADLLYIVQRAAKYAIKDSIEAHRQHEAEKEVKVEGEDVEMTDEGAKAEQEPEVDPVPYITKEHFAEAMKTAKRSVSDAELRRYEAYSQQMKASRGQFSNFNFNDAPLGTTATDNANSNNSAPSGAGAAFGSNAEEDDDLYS

Numbering of substitutions follows the chain as printed. Results are given in words; binding and its absence hold for the method and conditions named. In cells and extracts the contact can be indirect. Some binding calls cover weakened binding; strength is not graded here. Tags and fused reporters may be left off the sequences shown.

What all share (test): co-IP; HA-Fzo1 variants expressed in Δfzo1 cells; crude membrane fraction solubilized with 0.2% NG310 in TBS; HA-Fzo1 immunoprecipitated overnight at 4°C (methods name Flag-coupled beads); washed with 0.2% NG310 in TBS; blots with HA- and Cdc48-specific antibodies
Assay [1] concerns the target T1, HA-Fzo1 (wild type) (S. cerevisiae) (UniProt P38297).
T1 sequence: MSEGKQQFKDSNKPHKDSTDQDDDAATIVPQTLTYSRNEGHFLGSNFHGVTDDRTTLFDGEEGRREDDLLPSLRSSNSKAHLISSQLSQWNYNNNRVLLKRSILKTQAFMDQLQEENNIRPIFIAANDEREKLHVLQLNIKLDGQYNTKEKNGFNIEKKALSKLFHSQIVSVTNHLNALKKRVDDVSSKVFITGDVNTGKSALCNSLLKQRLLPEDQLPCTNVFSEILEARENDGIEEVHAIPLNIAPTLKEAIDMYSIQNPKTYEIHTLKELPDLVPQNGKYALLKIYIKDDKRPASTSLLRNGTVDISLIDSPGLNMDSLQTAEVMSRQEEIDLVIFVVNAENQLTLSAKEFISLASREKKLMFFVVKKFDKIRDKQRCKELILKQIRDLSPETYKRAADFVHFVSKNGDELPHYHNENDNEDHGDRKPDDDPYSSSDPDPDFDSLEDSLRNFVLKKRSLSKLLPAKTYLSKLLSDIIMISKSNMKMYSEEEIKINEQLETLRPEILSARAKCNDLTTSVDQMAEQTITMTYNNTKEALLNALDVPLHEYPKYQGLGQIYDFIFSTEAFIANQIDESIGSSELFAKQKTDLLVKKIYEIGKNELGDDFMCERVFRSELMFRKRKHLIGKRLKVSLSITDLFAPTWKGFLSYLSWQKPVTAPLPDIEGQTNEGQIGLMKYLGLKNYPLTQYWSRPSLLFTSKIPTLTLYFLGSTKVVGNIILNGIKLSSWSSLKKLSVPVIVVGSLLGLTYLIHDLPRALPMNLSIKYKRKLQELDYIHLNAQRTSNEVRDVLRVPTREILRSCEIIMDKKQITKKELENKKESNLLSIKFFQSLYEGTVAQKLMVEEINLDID

In assay [2] the target is T2, HA-Fzo1^K464R (S. cerevisiae) (UniProt P38297).
T2 sequence: T1 sequence with K464R

Assay [3] addresses T3, HA-Fzo1^R182E;D335K;K464D (S. cerevisiae) (UniProt P38297).
T3 sequence: T1 sequence with R182E, D335K, K464D

As for Cdc48 (from UniProt P25694 1-835), the figures for the binding entry in assay [1], in assay [2] and in assay [3] were “binds”, “no binding” and “binds”, respectively.
